Laboratory results: PubChem BioAssay AID1224830 (NIAID, 2016)
In all, the deposit lists about 18,000 reagents; shown is an unselected part. About 2,900 of all reagents (16%) count as active. 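Calls are made per well; low scores hint the gene aids the LPS response, high scores that it dampens it.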 Repeated entries: four replicate wells of each siRNA pool. No sequences are given here.

Aim: 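Host factors that control LPS-induced TNF expression in human macrophages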 (primary screen)
Cell system: human THP-1 monocytic leukaemia cells, TNF dual-luciferase reporter clone, PMA-differentiated to macrophage-like cells
Knock-down reagent: siRNA pool against human genes, 50 nM
Timing: LPS for 4 h, given about 3 days after siRNA transfection
Treatment: bacterial LPS (TLR4 ligand), 10 ng/ml
Measured: 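TNF firefly reporter luminescence divided by renilla, normalised to the plate median, then turned into a robust z-score for each replicate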
Direction: TNF reporter robust z-score: higher = stronger TNF reporter response to LPS
Rule for the call: 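a well is active when its z-score exceeds 2.8 or falls below -1.5; control wells carry no call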

TAAR2 (GeneID 9287) [SID315453177] — TNF reporter robust z-score = -0.69; call = inactive
TAAR2 (GeneID 9287) [SID315453177] — TNF reporter robust z-score = -0.3; call = inactive
TAAR2 (GeneID 9287) [SID315453177] — TNF reporter robust z-score = 0.4; call = inactive
TAAR2 (GeneID 9287) [SID315453177] — TNF reporter robust z-score = 0.19; call = inactive
RGS2 (GeneID 5997) [SID315451119] — TNF reporter robust z-score = -0.1; call = inactive
RGS2 (GeneID 5997) [SID315451119] — TNF reporter robust z-score = -0.25; call = inactive
RGS2 (GeneID 5997) [SID315451119] — TNF reporter robust z-score = 0.34; call = inactive
RGS2 (GeneID 5997) [SID315451119] — TNF reporter robust z-score = 0.44; call = inactive
PCDHGB5 (GeneID 56101) [SID315457988] — TNF reporter robust z-score = 0.38; call = inactive
PCDHGB5 (GeneID 56101) [SID315457988] — TNF reporter robust z-score = 2.18; call = inactive
PCDHGB5 (GeneID 56101) [SID315457988] — TNF reporter robust z-score = 1.1; call = inactive
PCDHGB5 (GeneID 56101) [SID315457988] — TNF reporter robust z-score = 0.94; call = inactive

Sorted by “TNF reporter robust z-score” (low to high): some entries from above.
PCDHGB5 (GeneID 56101) [SID315457988] — TNF reporter robust z-score = 0.38; call = inactive
RGS2 (GeneID 5997) [SID315451119] — TNF reporter robust z-score = 0.44; call = inactive
PCDHGB5 (GeneID 56101) [SID315457988] — TNF reporter robust z-score = 0.94; call = inactive
PCDHGB5 (GeneID 56101) [SID315457988] — TNF reporter robust z-score = 1.1; call = inactive
PCDHGB5 (GeneID 56101) [SID315457988] — TNF reporter robust z-score = 2.18; call = inactive

The list goes on.
KLK9 (GeneID 284366) [SID315463771] — TNF reporter robust z-score = 1.01; call = inactive
KLK9 (GeneID 284366) [SID315463771] — TNF reporter robust z-score = 0.03; call = inactive
KLK9 (GeneID 284366) [SID315463771] — TNF reporter robust z-score = 3.23; call = active
KLK9 (GeneID 284366) [SID315463771] — TNF reporter robust z-score = -0.48; call = inactive
PGLS (GeneID 25796) [SID315455466] — TNF reporter robust z-score = 0; call = inactive
PGLS (GeneID 25796) [SID315455466] — TNF reporter robust z-score = 1.92; call = inactive
PGLS (GeneID 25796) [SID315455466] — TNF reporter robust z-score = 0.7; call = inactive
PGLS (GeneID 25796) [SID315455466] — TNF reporter robust z-score = 0.27; call = inactive
FAM110A (GeneID 83541) [SID315460015] — TNF reporter robust z-score = -1; call = inactive
FAM110A (GeneID 83541) [SID315460015] — TNF reporter robust z-score = 0.19; call = inactive
FAM110A (GeneID 83541) [SID315460015] — TNF reporter robust z-score = -1.08; call = inactive
FAM110A (GeneID 83541) [SID315460015] — TNF reporter robust z-score = -1.21; call = inactive
GMNN (GeneID 51053) [SID315456426] — TNF reporter robust z-score = -1.35; call = inactive
GMNN (GeneID 51053) [SID315456426] — TNF reporter robust z-score = -0.86; call = inactive
GMNN (GeneID 51053) [SID315456426] — TNF reporter robust z-score = -1.24; call = inactive
GMNN (GeneID 51053) [SID315456426] — TNF reporter robust z-score = -0.21; call = inactive
MSH2 (GeneID 4436) [SID315450039] — TNF reporter robust z-score = -0.58; call = inactive
MSH2 (GeneID 4436) [SID315450039] — TNF reporter robust z-score = -0.52; call = inactive
MSH2 (GeneID 4436) [SID315450039] — TNF reporter robust z-score = -1.21; call = inactive
MSH2 (GeneID 4436) [SID315450039] — TNF reporter robust z-score = -1.06; call = inactive
